Publication PMC11648352

Sequences of proteins named here, by UniProt entry; tags and fusion partners are left off.
UniProt P17844: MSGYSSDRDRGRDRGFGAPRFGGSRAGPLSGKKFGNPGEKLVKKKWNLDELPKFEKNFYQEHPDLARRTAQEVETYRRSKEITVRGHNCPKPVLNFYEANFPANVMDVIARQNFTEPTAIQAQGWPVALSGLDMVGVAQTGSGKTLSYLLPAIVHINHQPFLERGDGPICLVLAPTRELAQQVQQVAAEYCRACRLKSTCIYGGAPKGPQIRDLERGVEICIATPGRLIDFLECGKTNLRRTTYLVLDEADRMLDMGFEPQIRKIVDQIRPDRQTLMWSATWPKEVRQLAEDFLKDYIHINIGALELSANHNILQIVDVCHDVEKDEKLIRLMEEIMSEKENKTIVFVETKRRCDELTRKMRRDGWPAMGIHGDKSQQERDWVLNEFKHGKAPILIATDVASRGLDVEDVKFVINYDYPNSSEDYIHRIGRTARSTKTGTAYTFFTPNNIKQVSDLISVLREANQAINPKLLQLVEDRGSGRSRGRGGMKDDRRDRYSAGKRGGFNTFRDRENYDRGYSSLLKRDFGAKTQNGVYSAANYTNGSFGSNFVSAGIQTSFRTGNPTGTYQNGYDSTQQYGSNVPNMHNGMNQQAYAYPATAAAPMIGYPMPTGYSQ
UniProt Q09028: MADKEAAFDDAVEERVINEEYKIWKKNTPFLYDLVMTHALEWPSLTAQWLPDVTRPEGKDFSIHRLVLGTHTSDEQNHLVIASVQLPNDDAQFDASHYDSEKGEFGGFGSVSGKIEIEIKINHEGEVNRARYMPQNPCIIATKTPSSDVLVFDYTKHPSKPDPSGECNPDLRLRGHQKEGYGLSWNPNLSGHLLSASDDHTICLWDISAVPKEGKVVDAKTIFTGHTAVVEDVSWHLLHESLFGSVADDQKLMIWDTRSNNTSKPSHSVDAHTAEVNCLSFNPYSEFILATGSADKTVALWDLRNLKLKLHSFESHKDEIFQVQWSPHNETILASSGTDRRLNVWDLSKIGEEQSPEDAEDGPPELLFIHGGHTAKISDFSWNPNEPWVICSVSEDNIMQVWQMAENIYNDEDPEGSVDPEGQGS
UniProt Q16666: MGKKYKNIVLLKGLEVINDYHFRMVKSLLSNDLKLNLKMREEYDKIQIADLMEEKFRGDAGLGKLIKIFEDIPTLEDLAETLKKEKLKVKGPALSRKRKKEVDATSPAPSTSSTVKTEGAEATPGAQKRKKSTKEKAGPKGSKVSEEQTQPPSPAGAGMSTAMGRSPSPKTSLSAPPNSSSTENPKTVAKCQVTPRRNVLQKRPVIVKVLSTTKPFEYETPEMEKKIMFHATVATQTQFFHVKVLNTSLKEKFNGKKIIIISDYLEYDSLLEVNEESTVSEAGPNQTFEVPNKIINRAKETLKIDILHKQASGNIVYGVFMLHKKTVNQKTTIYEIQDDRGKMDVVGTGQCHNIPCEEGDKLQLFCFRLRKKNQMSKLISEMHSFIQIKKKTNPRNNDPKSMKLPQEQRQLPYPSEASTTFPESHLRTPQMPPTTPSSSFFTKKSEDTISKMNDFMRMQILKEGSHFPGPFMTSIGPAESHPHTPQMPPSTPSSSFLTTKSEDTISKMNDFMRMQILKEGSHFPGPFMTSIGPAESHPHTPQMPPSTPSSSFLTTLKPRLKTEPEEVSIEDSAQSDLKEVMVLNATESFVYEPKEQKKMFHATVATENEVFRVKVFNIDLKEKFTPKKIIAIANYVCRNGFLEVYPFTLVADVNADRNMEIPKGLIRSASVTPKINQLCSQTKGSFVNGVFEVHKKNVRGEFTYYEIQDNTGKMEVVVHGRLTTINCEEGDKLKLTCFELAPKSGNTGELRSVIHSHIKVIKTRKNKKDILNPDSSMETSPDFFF

Target: FLAG-DDX5 (RNA helicase DEAD box protein 5, wild type) (UniProt P17844)
Experiment: affinity purification with mass spectrometry; native whole-cell extract of Dox-induced (1.0 µg/mL, 48 h) FLAG-DDX5 HepaRG cells immunoprecipitated with FLAG Ab or IgG; short SDS-PAGE, in-gel trypsin digestion, label-free quantitative LC-MS/MS

Substance	binding
RBBP4, auxiliary PRC2 subunit (from UniProt Q09028 1-425)	binds
interferon-inducible protein 16 (IFI16) (from UniProt Q16666 1-785)	binds

No constants are given. Whether binding was seen depends on the method and setting. Binding seen in cells or lysates may run through a third protein. Here binding means that the protein was enriched with, or labelled near, the bait; the list need not be complete.
